These are yes or no findings as the source states them, for the method shown. Binding can be weak; no strength is given. For some assays here: Sequences can lack the tags named with a protein. For some assays here: Binding seen in cells or lysates may run through a third protein.
T1: BD-StSN2 (potato (Solanum tuberosum)) (UniProt Q93X17)
T1 sequence: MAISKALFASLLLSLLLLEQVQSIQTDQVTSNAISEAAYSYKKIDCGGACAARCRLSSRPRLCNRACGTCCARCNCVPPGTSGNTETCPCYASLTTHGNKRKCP


Assays:
[1] = target: T1, BD-StSN2 (potato (Solanum tuberosum)); assay: two-hybrid; pGBKT7 (BD) and pGADT7 (AD) fusions in AH109 yeast; growth on SD-Trp/Leu/His/Ade (quadruple dropout) in a dilution series
[2] = target: StBIN2 (endogenous, potato tuber) (potato (endogenous in tuber budding eyes)); assay: co-IP; total protein from budding eyes of potato tubers; anti-StBIN2 antibody and protein A magnetic beads, 6-8 h at 4°C, washed with 1x PBS; StSN2 detected by blot

Molecule	binding [1]	binding [2]
AD-StBIN2 (potato (Solanum tuberosum)) (enzyme)	binds	–
StSN2 (endogenous, potato tuber) (protein, UniProt Q93X17 39-104) YSYKKIDCGGACAARCRLSSRPRLCNRACGTCCARCNCVPPGTSGNTETCPCYASLTTHGNKRKCP	–	binds

Reference: article PMC10753161
